For orientation: IC50 means the midpoint of a concentration-inhibition curve.

Protein sequences, listed by entry. Tags and fused reporters are not part of them. Residues count along the entry.
UniProt O15530, 51-556 limits assumed: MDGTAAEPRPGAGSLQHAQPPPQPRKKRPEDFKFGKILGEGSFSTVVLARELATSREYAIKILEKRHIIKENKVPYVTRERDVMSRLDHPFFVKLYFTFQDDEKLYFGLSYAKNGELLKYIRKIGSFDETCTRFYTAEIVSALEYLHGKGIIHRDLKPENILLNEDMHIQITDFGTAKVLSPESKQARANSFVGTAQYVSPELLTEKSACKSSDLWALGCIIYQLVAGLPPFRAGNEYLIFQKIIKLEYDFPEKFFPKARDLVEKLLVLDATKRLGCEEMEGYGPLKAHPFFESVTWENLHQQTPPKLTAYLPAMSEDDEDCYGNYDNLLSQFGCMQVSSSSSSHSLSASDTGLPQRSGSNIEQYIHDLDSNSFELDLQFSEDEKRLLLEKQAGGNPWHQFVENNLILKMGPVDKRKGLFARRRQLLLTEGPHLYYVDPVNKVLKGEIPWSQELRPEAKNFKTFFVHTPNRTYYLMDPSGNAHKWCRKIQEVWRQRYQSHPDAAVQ

The match of structure and compound is tentative.

For 1 compound, IC50 results are on record in patent US8623857B2, “N-phenyl imidazole carboxamide inhibitors of 3-phosphoinositide-dependent protein kinase-1” (Merck Sharp & Dohme Corp., priority 2010, dated 2014).

The target of this experiment is recombinant human PDK1 (Homo sapiens, UniProt O15530). The settings on record: Table 10; compounds 97-132.

For `CNc1nc(-c2c[nH]c(C(=O)Nc3cccc(F)c3N3CCC(CN)CC3)n2)cc(N2C[C@@H](C(=O)NC3CCCCC3)CC[C@H]2C)n1` (relative stereo), the half-inhibitory concentration (IC50) lay within 1 to 50 nM.
